Patent EP4643867A1 (Eberhard Karls Universität Tübingen (Medizinische Fakultät), dated 2025)
No constants are given. Whether binding was seen depends on the method and setting. Some entries that bind do so weakly or less than the wild type.

Amino acid sequences for entries named in this document (tags omitted). Residues count along the entry.
UniProt P15692, residues 214-315: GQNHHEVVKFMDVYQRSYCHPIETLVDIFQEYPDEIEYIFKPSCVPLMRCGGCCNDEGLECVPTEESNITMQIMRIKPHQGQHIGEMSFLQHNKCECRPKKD

Tests used:
[1] = molecular target: human VEGF165 (Gly34-Asp135) (human) (UniProt P15692); experiment: NMR 15N-HSQC titration of labelled Sam (Sam0.2 by the methods) with unlabelled VEGF
[2] = molecular target: human VEGF165 (Gly34-Asp135) (human) (UniProt P15692); experiment: NMR 15N-HSQC titration, legend of Fig. 14

binding [1]: binds | binding [2]: binds
B1: Sam0.2 (designed binder, not shown: small tags and cut ends)
chain: LPTAEEVQKLMARYIELMDVGDIEAIVQMYADDATVEAPFGAPPIHGRERIAYFYRRMLGEGIARATLTGPVRASHNGTGAMPFRVEYVFNGQPYAMDVRVEMRFDEHGRIQTMQAYWSEVNDSVREP
